# Experimental data as given in the supplement of paper PMC4604168 (melanoma cell lines).
# The list shows a part of the results. Single values are uncertain, as repeats are few or missing.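 The apoptosis fraction was the count of cleaved-PARP antibody-stained nuclei relative to all DNA-stained nuclei, imaged in 1,536-well plates. Screening doses were set so most cells survived, and baseline and induced cleaved-PARP levels vary greatly across cell lines.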
# Assays:
# Experiment in all cases: cleaved PARP positive nuclei fraction relative to DMSO control; melanoma cells; higher = more apoptosis
# Conditions in all cases: library dose: low library concentration; 72 h
# CBRC034 = system: CBRC034 (line from a melanoma biopsy)
# COLO792 = system: COLO792
# COLO800 = system: COLO800
# COLO829 = system: COLO829
# G361 = system: G361
# IPC-298 = system: IPC-298
# IST-MEL1 = system: IST-MEL1
# LB2518-MEL = system: LB2518-MEL
# LOXIMVI = system: LOXIMVI
SMILES,cleaved PARP positive nuclei fraction (CBRC034),cleaved PARP positive nuclei fraction (COLO792),cleaved PARP positive nuclei fraction (COLO800),cleaved PARP positive nuclei fraction (COLO829),cleaved PARP positive nuclei fraction (G361),cleaved PARP positive nuclei fraction (IPC-298),cleaved PARP positive nuclei fraction (IST-MEL1),cleaved PARP positive nuclei fraction (LB2518-MEL),cleaved PARP positive nuclei fraction (LOXIMVI)
"O=C1NC(=O)/C(=C/c2ccc(-c3ccc(F)cc3O)o2)S1 + Cn1cc(/C=C2\C(=O)Nc3cccnc32)c2ccccc21 [GW441756] (first compound 1 µM, partner dose 0.4 µM)",41.6%,120%,73%,52.4%,92.8%,57.9%,30.9%,88.7%,82.8%
"CN(NC(=O)CC(=O)NN(C)C(=S)c1ccccc1)C(=S)c1ccccc1 + CCN(CC)CCCCNc1ncc2cc(-c3cc(OC)cc(OC)c3)c(NC(=O)NC(C)(C)C)nc2n1 [PD173074] (first compound 0.006 µM, partner dose 0.1 µM)",241%,190%,374%,160%,104%,100%,301%,211%,193%
"CN(NC(=O)CC(=O)NN(C)C(=S)c1ccccc1)C(=S)c1ccccc1 + CCc1ccc(CCOc2ccc(CC3SC(=O)NC3=O)cc2)nc1 [pioglitazone] (first compound 0.006 µM, partner dose 2 µM)",94.1%,145%,114%,84.5%,73.5%,26.6%,246%,220%,53.5%
"COc1ccc(-c2ccc3c(N4CCOCC4)nc(N4C[C@@H](C)O[C@@H](C)C4)nc3n2)cc1CO + CC(C)CCN1c2nc(Nc3cc(F)c(O)c(F)c3)ncc2N(C)C(=O)C1C [BID1870] (first compound 0.02 µM, partner dose 0.2 µM)",85.9%,102%,108%,101%,200%,89.9%,106%,349%,1030%
"O=C(Nc1ccccc1)c1cc([N+](=O)[O-])ccc1Cl + COc1ccc(COc2ccc(Cc3cnc(N)nc3N)cc2OC)cc1 [GW2580] (first compound 2 µM, partner dose 1 µM)",160%,67.6%,65%,151%,128%,73.7%,87%,87.3%,81.7%
"COc1cc2c(Oc3ccc4[nH]c(C)cc4c3F)ncnc2cc1OCCCN1CCCC1 [cediranib] + Cn1cc(/C=C2\C(=O)Nc3cccnc32)c2ccccc21 [GW441756] (first compound 0.4 µM, partner dose 0.4 µM)",82.1%,89.9%,65.6%,142%,63.2%,78.2%,138%,92.1%,64.9%
"COc1cc(N2CCC(N3CCN(C)CC3)CC2)ccc1Nc1ncc(Cl)c(Nc2ccccc2S(=O)(=O)C(C)C)n1 + O=c1cc(-c2cccc3c2Sc2ccccc2S3)oc(N2CCOCC2)c1 [KU55933] (first compound 0.08 µM, partner dose 1 µM)",206%,224%,118%,80.9%,101%,114%,529%,68.4%,112%
"O=C(O)C(=O)Nc1sc2c(c1C(=O)O)CCNC2 + Oc1nc(-c2ccc(C(F)(F)F)cc2)nc2c1CSCC2 [XAV939] (first compound 1.66667 µM, partner dose 2 µM)",26.1%,121%,73.9%,80.6%,75.1%,89%,66.1%,88.4%,44.1%
"NCC(=O)Nc1ccc(-n2nc(C(F)(F)F)cc2-c2ccc3c(ccc4ccccc43)c2)cc1 + c1cc(-c2cnn3cc(-c4ccc(OCCN5CCCCC5)cc4)cnc23)ccn1 [Dorsomorphin] (first compound 1 µM, partner dose 0.4 µM)",92.9%,180%,125%,92%,123%,150%,60.8%,70.1%,38.2%
"CCc1ccc(CCOc2ccc(CC3SC(=O)NC3=O)cc2)nc1 (stereo unspecified) [pioglitazone] + Cn1cc(/C=C2\C(=O)Nc3cccnc32)c2ccccc21 [GW441756] (first compound 2 µM, partner dose 0.4 µM)",85.2%,242%,204%,96.6%,195%,25%,121%,86.2%,23.3%
"CCc1ccc(CCOc2ccc(CC3SC(=O)NC3=O)cc2)nc1 (stereo unspecified) [pioglitazone] + O=c1cc(-c2cccc3c2Sc2ccccc2S3)oc(N2CCOCC2)c1 [KU55933] (first compound 2 µM, partner dose 1 µM)",57.9%,79.3%,132%,95.4%,52.7%,28.7%,43.4%,399%,64.2%
"Cn1cc(/C=C2\C(=O)Nc3cccnc32)c2ccccc21 + CCCCCCCCCCCC1=C(O)C(=O)C=C(O)C1=O [Embelin] (first compound 0.4 µM, partner dose 1.2 µM)",104%,41.5%,74%,91.7%,225%,93%,293%,74.7%,73%
"COc1cc2c(Oc3ccc4[nH]c(C)cc4c3F)ncnc2cc1OCCCN1CCCC1 [cediranib] + COC(=O)c1sccc1S(=O)(=O)Nc1ccc(Nc2ccccc2)cc1OC [GSK0660] (first compound 0.4 µM, partner dose 1 µM)",183%,97.9%,163%,91.8%,58.1%,82.4%,58.8%,85.7%,80.6%
"CN(NC(=O)CC(=O)NN(C)C(=S)c1ccccc1)C(=S)c1ccccc1 + COc1ccc(-c2ccc3c(N4CCOCC4)nc(N4C[C@@H](C)O[C@@H](C)C4)nc3n2)cc1CO [KU0063794] (first compound 0.006 µM, partner dose 0.02 µM)",95.9%,176%,307%,293%,138%,89.5%,48.9%,96.9%,27.4%
"O=S(=O)(c1ccccc1)N(CC(F)(F)F)c1ccc(C(O)(C(F)(F)F)C(F)(F)F)cc1 + Cn1cc(/C=C2\C(=O)Nc3cccnc32)c2ccccc21 [GW441756] (first compound 1.4 µM, partner dose 0.4 µM)",45.5%,88.4%,75.2%,109%,333%,123%,113%,71.8%,97.9%
"COC(=O)c1sccc1S(=O)(=O)Nc1ccc(Nc2ccccc2)cc1OC + CCN(CC)CCCCNc1ncc2cc(-c3cc(OC)cc(OC)c3)c(NC(=O)NC(C)(C)C)nc2n1 [PD173074] (first compound 1 µM, partner dose 0.1 µM)",89.6%,302%,74.6%,84.8%,78.1%,105%,45.1%,163%,44.8%
"CN(C)S(=O)(=O)c1ccc2c(c1)/C(=C/c1cc3c([nH]1)CCCC3)C(=O)N2 + Oc1cc(-c2nc(-c3ccccc3)[nH]c2-c2ccncc2)ccc1Cl [L779450] (first compound 0.4 µM, partner dose 0.2 µM)",90.1%,166%,87.5%,143%,80.7%,93.4%,48%,49.6%,12.1%
"O=S(=O)(c1ccccc1)N(CC(F)(F)F)c1ccc(C(O)(C(F)(F)F)C(F)(F)F)cc1 + COc1cc(N2CCC(N3CCN(C)CC3)CC2)ccc1Nc1ncc(Cl)c(Nc2ccccc2S(=O)(=O)C(C)C)n1 [NVP-TAE684] (first compound 1.4 µM, partner dose 0.08 µM)",92.3%,87.5%,75.9%,114%,110%,43.8%,128%,184%,68.2%
"CCc1ccc(CCOc2ccc(CC3SC(=O)NC3=O)cc2)nc1 (stereo unspecified) [pioglitazone] + COC(=O)c1sccc1S(=O)(=O)Nc1ccc(Nc2ccccc2)cc1OC [GSK0660] (first compound 2 µM, partner dose 1 µM)",67.7%,104%,84.4%,88.4%,128%,84.3%,41.4%,267%,73.9%
"N#Cc1c(O)c2c(-c3ccc(-c4ccccc4O)cc3)csc2[nH]c1=O + COc1ccc(-c2ccc3c(N4CCOCC4)nc(N4C[C@@H](C)O[C@@H](C)C4)nc3n2)cc1CO [KU0063794] (first compound 2 µM, partner dose 0.02 µM)",76.8%,172%,140%,80.3%,64.9%,42.2%,104%,80.2%,55.7%
"COc1ccc(COc2ccc(Cc3cnc(N)nc3N)cc2OC)cc1 + O=c1cc(-c2cccc3c2Sc2ccccc2S3)oc(N2CCOCC2)c1 [KU55933] (first compound 1 µM, partner dose 1 µM)",156%,97.9%,46.5%,84.2%,73.4%,54.8%,41.3%,73.5%,27.8%
"CN(NC(=O)CC(=O)NN(C)C(=S)c1ccccc1)C(=S)c1ccccc1 + Cc1cc([N+](=O)[O-])ccc1NS(=O)(=O)c1cc(Cl)ccc1Cl [FH535] (first compound 0.006 µM, partner dose 1 µM)",406%,239%,266%,334%,214%,50.7%,124%,210%,87.6%
"CCN(CC)CCCCNc1ncc2cc(-c3cc(OC)cc(OC)c3)c(NC(=O)NC(C)(C)C)nc2n1 + COc1cc2ncnc(Nc3ccc(Oc4ccccc4)cc3)c2cc1OC [SrcI1] (first compound 0.1 µM, partner dose 2 µM)",71.4%,119%,94.2%,77.6%,104%,131%,123%,165%,70.6%
"O=S(=O)(c1ccccc1)N(CC(F)(F)F)c1ccc(C(O)(C(F)(F)F)C(F)(F)F)cc1 + Oc1cc(-c2nc(-c3ccccc3)[nH]c2-c2ccncc2)ccc1Cl [L779450] (first compound 1.4 µM, partner dose 0.2 µM)",97.1%,54.4%,84.3%,144%,115%,50.8%,114%,179%,78.7%

# Two entries from above in another layout:
SMILES	cleaved PARP positive nuclei fraction (CBRC034)	cleaved PARP positive nuclei fraction (COLO792)	cleaved PARP positive nuclei fraction (COLO800)	cleaved PARP positive nuclei fraction (COLO829)	cleaved PARP positive nuclei fraction (G361)	cleaved PARP positive nuclei fraction (IPC-298)	cleaved PARP positive nuclei fraction (IST-MEL1)	cleaved PARP positive nuclei fraction (LB2518-MEL)	cleaved PARP positive nuclei fraction (LOXIMVI)
CN(C)S(=O)(=O)c1ccc2c(c1)/C(=C/c1cc3c([nH]1)CCCC3)C(=O)N2 + Oc1cc(-c2nc(-c3ccccc3)[nH]c2-c2ccncc2)ccc1Cl [L779450] (first compound 0.4 µM, partner dose 0.2 µM)	90.1%	166%	87.5%	143%	80.7%	93.4%	48%	49.6%	12.1%
N#Cc1c(O)c2c(-c3ccc(-c4ccccc4O)cc3)csc2[nH]c1=O + COc1ccc(-c2ccc3c(N4CCOCC4)nc(N4C[C@@H](C)O[C@@H](C)C4)nc3n2)cc1CO [KU0063794] (first compound 2 µM, partner dose 0.02 µM)	76.8%	172%	140%	80.3%	64.9%	42.2%	104%	80.2%	55.7%
